Changes are numbered by the printed parent chain. Construct, isoform or probe ends are uncertain for at least one entry. For some of these results: The comparison behind a weaker result is the experiment's own reference, which may not be listed here. At least one verdict rests on a figure or table, not on a statement of the authors. Protein sequences can lack the tags named with them.

The values below come from publication PMC7229837, “Molecular architecture of the DNA-binding sites of the P-loop ATPases MipZ and ParA from Caulobacter crescentus”.

Assay in all cases: BLI
Background: In BLI a coated tip is dipped into the sample, and binding shifts an interference pattern.

For data set [1], the target named is T1, MipZ WT (Caulobacter crescentus) (UniProt Q9A6C9).
T1 sequence (looked up, limits assumed): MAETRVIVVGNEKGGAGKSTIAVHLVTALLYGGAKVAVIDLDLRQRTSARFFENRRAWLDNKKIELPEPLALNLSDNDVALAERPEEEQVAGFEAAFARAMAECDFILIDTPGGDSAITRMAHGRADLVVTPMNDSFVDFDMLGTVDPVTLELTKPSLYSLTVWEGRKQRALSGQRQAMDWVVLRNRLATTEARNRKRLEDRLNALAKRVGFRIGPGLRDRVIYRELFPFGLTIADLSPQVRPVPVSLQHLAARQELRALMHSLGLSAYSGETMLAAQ
As to conditions: 1 mM ATPgS, no preference for GC-rich DNA, BLI: 50 mM HEPES/NaOH pH 7.2, 50 mM NaCl, 5 mM MgCl2, 0.1 mM EDTA, 10% glycerol, recombinant protein, protein details: C-terminal His6 (pET21a), label: biotin (5') on strand 1.

Data set [2] deals with T2, MipZ K13A (Caulobacter crescentus) (UniProt Q9A6C9).
T2 sequence (looked up, limits assumed): T1 sequence (looked up, limits assumed) with K13A
Particulars: 1 mM ATPgS, BLI: 50 mM HEPES/NaOH pH 7.2, 50 mM NaCl, 5 mM MgCl2, 0.1 mM EDTA, 10% glycerol, recombinant protein, protein details: C-terminal His6 (pET21a), label: biotin (5') on strand 1.

In data set [3] the target is T3, MipZ L248A (Caulobacter crescentus) (UniProt Q9A6C9).
T3 sequence (looked up, limits assumed): T1 sequence (looked up, limits assumed) with L248A
Particulars: 1 mM ATPgS, BLI: 50 mM HEPES/NaOH pH 7.2, 50 mM NaCl, 5 mM MgCl2, 0.1 mM EDTA, 10% glycerol, recombinant protein, protein details: C-terminal His6 (pET21a), label: biotin (5') on strand 1.

The target of data set [4] is T4, MipZ R196A (Caulobacter crescentus) (UniProt Q9A6C9).
T4 sequence (looked up, limits assumed): T1 sequence (looked up, limits assumed) with R196A
Particulars: 1 mM ATPgS, BLI: 50 mM HEPES/NaOH pH 7.2, 50 mM NaCl, 5 mM MgCl2, 0.1 mM EDTA, 10% glycerol, recombinant protein, protein details: C-terminal His6 (pET21a), label: biotin (5') on strand 1.

The target in data set [5] is T5, MipZ R219A (Caulobacter crescentus) (UniProt Q9A6C9).
T5 sequence (looked up, limits assumed): T1 sequence (looked up, limits assumed) with R219A
As to conditions: 1 mM ATPgS, BLI: 50 mM HEPES/NaOH pH 7.2, 50 mM NaCl, 5 mM MgCl2, 0.1 mM EDTA, 10% glycerol, recombinant protein, protein details: C-terminal His6 (pET21a), label: biotin (5') on strand 1.

Data set [6] concerns the target T6, MipZ L237A (Caulobacter crescentus) (UniProt Q9A6C9).
T6 sequence (looked up, limits assumed): T1 sequence (looked up, limits assumed) with L237A
Particulars: 1 mM ATPgS, BLI: 50 mM HEPES/NaOH pH 7.2, 50 mM NaCl, 5 mM MgCl2, 0.1 mM EDTA, 10% glycerol, recombinant protein, protein details: C-terminal His6 (pET21a), label: biotin (5') on strand 1.

Data set [7] has as its target T7, MipZ R242A (Caulobacter crescentus) (UniProt Q9A6C9).
T7 sequence (looked up, limits assumed): T1 sequence (looked up, limits assumed) with R242A
As to conditions: 1 mM ATPgS, BLI: 50 mM HEPES/NaOH pH 7.2, 50 mM NaCl, 5 mM MgCl2, 0.1 mM EDTA, 10% glycerol, recombinant protein, protein details: C-terminal His6 (pET21a), label: biotin (5') on strand 1.

Data set [8] has as its target T8, MipZ K197A (Caulobacter crescentus) (UniProt Q9A6C9).
T8 sequence (looked up, limits assumed): T1 sequence (looked up, limits assumed) with K197A
Particulars: 1 mM ATPgS, BLI: 50 mM HEPES/NaOH pH 7.2, 50 mM NaCl, 5 mM MgCl2, 0.1 mM EDTA, 10% glycerol, recombinant protein, protein details: C-terminal His6 (pET21a), label: biotin (5') on strand 1.

For data set [9], the target named is T9, MipZ R198A (Caulobacter crescentus) (UniProt Q9A6C9).
T9 sequence (looked up, limits assumed): T1 sequence (looked up, limits assumed) with R198A
As to conditions: 1 mM ATPgS, BLI: 50 mM HEPES/NaOH pH 7.2, 50 mM NaCl, 5 mM MgCl2, 0.1 mM EDTA, 10% glycerol, recombinant protein, protein details: C-terminal His6 (pET21a), label: biotin (5') on strand 1.

The target of data set [10] is T10, MipZ R194A (Caulobacter crescentus) (UniProt Q9A6C9).
T10 sequence (looked up, limits assumed): T1 sequence (looked up, limits assumed) with R194A
As to conditions: 1 mM ATPgS, BLI: 50 mM HEPES/NaOH pH 7.2, 50 mM NaCl, 5 mM MgCl2, 0.1 mM EDTA, 10% glycerol, recombinant protein, protein details: C-terminal His6 (pET21a), label: biotin (5') on strand 1.

Data set [11] addresses T11, MipZ R221A (Caulobacter crescentus) (UniProt Q9A6C9).
T11 sequence (looked up, limits assumed): T1 sequence (looked up, limits assumed) with R221A
As to conditions: 1 mM ATPgS, BLI: 50 mM HEPES/NaOH pH 7.2, 50 mM NaCl, 5 mM MgCl2, 0.1 mM EDTA, 10% glycerol, recombinant protein, protein details: C-terminal His6 (pET21a), label: biotin (5') on strand 1.

For “CATACGAGGTCGAGATGC (double strand) [GC56-biotin/GC56-rev (56% GC)]”, the binding result in data set [1] is on record as “binds”.
Consider “GCGCCCTGTTCGCCCCGCT (double strand) [GCrich-biotin/GCrich-rev (79% GC)]”, for which the binding result in data set [1] was “binds”.
For the sequence “GAGGCAGACTAGATCTTCTAGTTCGG (double strand) [rand-biotin/rand-rev 26 bp]”, the binding result in data set [2], in [3], in [4], in data set [5], in data set [6] and in data set [7] was “binds more weakly” in each case. The binding result in data set [8], in data set [9], in data set [10] and in data set [11] was “binds more weakly” throughout.
For “AATAAATAAGAATAGTAAAAGTAAAGAAAG (double strand) [ATrich-biotin/ATrich-rev (17% GC)]”, the binding result in data set [1] was “binds”.
